Measured values taken from publication PMC6748086.
No constants are given. Whether binding was seen depends on the method and setting. In cells and extracts the contact can be indirect. Some results given as binding are weak or reduced against the parent protein; the word gives no strength. For part of these data: Sequences can lack the tags named with a protein. Each block holds one molecule with its values, some of them ahead of it.

The chains behind the UniProt entries cited, without tags or fusion partners. Where a name states a change or a piece, a line headed by the entry shows the natural chain unless it says otherwise. Residues count along the entry.
UniProt P49715: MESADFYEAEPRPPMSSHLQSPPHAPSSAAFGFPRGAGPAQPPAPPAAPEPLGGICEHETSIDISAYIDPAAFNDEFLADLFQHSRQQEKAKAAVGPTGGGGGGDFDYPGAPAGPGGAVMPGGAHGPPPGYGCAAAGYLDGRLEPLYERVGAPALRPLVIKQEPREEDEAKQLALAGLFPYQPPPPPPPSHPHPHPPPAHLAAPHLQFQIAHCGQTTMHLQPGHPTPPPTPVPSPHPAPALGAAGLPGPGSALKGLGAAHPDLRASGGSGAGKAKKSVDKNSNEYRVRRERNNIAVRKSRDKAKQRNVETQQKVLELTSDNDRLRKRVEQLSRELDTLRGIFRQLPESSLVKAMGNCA
GST-C4 (103–212) of C/EBPα: residues 103-212 of P49715

What was measured:
Flag-MORC2 (human) = target: T1, Flag-MORC2 (human) (UniProt Q9Y6X9); experiment: co-IP; HEK-293T cells transiently transfected with His-C/EBPα plus Flag-MORC2 for 36 h; total lysates immunoprecipitated and blotted with Flag-tag or His-tag antibody (reciprocal)
T1 sequence: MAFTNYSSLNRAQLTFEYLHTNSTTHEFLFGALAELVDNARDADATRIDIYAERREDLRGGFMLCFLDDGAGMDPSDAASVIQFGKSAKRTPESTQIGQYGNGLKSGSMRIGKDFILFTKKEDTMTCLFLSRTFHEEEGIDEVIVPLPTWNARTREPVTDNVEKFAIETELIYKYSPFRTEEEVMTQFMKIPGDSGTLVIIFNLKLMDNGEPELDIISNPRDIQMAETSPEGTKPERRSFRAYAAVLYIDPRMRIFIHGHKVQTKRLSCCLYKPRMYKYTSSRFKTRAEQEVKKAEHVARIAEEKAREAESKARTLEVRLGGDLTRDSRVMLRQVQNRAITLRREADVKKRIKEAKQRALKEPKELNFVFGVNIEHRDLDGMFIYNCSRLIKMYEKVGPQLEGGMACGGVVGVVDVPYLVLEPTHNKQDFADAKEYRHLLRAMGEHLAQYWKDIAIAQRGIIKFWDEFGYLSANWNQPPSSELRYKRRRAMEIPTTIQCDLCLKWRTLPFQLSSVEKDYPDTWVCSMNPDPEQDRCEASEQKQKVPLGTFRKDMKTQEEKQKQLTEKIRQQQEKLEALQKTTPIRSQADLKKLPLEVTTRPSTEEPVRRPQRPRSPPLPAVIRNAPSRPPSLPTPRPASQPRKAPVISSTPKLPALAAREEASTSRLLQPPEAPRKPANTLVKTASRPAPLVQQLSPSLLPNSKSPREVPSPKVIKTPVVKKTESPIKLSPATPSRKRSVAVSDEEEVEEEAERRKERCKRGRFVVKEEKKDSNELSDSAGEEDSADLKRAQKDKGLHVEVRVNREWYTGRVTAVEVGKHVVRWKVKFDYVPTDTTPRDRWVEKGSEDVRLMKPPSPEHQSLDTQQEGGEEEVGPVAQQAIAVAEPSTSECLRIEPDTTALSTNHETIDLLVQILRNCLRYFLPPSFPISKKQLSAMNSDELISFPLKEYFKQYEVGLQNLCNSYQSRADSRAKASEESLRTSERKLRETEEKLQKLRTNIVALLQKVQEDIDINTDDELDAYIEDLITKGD

endogenous MORC2 = target: T2, endogenous MORC2 (UniProt Q9Y6X9); experiment: co-IP; IP of endogenous C/EBPα and MORC2; cells not named
T2 sequence: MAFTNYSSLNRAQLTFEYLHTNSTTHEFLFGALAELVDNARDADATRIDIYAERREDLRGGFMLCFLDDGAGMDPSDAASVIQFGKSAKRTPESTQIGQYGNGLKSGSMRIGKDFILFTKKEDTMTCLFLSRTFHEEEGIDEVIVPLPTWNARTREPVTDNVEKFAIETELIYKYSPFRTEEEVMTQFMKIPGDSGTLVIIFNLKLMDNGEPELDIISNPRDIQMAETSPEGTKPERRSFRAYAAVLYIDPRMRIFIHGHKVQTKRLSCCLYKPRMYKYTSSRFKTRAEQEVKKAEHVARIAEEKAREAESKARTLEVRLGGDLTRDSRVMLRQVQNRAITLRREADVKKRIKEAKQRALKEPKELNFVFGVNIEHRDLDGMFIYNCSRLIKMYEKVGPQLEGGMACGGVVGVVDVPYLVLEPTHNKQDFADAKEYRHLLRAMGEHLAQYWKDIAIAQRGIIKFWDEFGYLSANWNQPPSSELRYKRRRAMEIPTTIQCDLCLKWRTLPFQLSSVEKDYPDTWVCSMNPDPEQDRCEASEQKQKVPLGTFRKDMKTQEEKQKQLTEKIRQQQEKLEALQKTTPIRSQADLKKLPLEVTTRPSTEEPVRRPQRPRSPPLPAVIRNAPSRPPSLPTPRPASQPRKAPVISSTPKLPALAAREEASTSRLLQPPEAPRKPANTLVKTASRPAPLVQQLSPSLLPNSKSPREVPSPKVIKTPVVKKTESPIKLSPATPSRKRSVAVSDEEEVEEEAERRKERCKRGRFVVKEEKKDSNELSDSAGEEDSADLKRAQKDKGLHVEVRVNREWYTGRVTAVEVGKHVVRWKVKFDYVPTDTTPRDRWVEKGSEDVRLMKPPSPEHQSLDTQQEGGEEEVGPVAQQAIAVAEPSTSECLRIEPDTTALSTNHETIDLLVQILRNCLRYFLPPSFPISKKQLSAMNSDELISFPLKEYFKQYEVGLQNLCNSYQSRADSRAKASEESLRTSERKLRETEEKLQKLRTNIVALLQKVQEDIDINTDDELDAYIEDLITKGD

GST-MORC2 (human) = target: T3, GST-MORC2 (human) (UniProt Q9Y6X9); experiment: pull-down; GST-MORC2, GST-MORC2 deletions or GST incubated with in vitro transcribed and translated C/EBPα; bound proteins detected by western blot (His-tag antibody in Fig. 1a); only the target purified
T3 sequence: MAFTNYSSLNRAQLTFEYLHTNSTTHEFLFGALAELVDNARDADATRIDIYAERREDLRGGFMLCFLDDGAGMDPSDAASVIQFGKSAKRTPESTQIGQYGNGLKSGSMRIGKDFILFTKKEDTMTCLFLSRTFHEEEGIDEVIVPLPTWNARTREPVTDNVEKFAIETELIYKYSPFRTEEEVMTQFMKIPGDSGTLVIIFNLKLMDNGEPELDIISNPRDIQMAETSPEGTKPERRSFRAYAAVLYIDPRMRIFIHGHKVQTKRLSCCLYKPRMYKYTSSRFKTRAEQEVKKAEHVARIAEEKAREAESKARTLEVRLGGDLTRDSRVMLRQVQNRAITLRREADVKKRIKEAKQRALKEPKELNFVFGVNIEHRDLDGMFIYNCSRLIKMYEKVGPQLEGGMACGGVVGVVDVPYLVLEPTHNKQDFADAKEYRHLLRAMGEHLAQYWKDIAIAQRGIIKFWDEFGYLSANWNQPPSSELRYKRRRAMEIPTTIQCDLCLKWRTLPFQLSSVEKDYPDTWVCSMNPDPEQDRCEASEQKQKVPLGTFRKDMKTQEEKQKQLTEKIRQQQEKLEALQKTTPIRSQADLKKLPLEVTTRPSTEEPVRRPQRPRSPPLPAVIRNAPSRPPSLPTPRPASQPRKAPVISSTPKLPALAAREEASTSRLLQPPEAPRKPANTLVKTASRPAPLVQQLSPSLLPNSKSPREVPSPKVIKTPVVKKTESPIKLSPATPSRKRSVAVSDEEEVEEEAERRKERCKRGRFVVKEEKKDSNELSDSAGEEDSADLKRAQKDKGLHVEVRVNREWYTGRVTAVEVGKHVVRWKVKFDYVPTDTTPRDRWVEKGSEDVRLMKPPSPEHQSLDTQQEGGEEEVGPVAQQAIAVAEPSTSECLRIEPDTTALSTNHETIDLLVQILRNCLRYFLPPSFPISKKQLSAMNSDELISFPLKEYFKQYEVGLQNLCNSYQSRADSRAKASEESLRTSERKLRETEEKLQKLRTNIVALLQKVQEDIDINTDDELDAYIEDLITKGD

[1] = target: T4, amino acids 657–781 of GST-MORC2 (human) (UniProt Q9Y6X9); experiment: as above
T4 sequence: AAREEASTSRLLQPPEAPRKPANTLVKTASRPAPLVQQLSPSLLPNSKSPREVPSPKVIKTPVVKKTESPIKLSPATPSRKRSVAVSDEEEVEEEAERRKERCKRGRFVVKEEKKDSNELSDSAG

[2] = target: GST-C4 (103–212) of C/EBPα (UniProt P49715); experiment: pull-down; purified GST, GST-C/EBPα full length or truncation and deletion constructs incubated with in vitro-translated MORC2; bound proteins detected by western blot; only the target purified
full length GST-C/EBPα = full length GST-C/EBPα (UniProt P49715); experiment: as above

binding (Flag-MORC2 (human)): binds
Molecule: His-C/EBPα (from UniProt P49715 1-358)

binding (endogenous MORC2): binds
Molecule: endogenous C/EBPα (from UniProt P49715 1-358)

binding (GST-MORC2 (human)): binds
binding [1]: binds
Molecule: in vitro-transcribed and translated His-C/EBPα (from UniProt P49715 1-358)

binding [2]: binds
binding (full length GST-C/EBPα): binds
B1: in vitro-translated His-MORC2 (protein, UniProt Q9Y6X9 1-1032)
chain: MAFTNYSSLNRAQLTFEYLHTNSTTHEFLFGALAELVDNARDADATRIDIYAERREDLRGGFMLCFLDDGAGMDPSDAASVIQFGKSAKRTPESTQIGQYGNGLKSGSMRIGKDFILFTKKEDTMTCLFLSRTFHEEEGIDEVIVPLPTWNARTREPVTDNVEKFAIETELIYKYSPFRTEEEVMTQFMKIPGDSGTLVIIFNLKLMDNGEPELDIISNPRDIQMAETSPEGTKPERRSFRAYAAVLYIDPRMRIFIHGHKVQTKRLSCCLYKPRMYKYTSSRFKTRAEQEVKKAEHVARIAEEKAREAESKARTLEVRLGGDLTRDSRVMLRQVQNRAITLRREADVKKRIKEAKQRALKEPKELNFVFGVNIEHRDLDGMFIYNCSRLIKMYEKVGPQLEGGMACGGVVGVVDVPYLVLEPTHNKQDFADAKEYRHLLRAMGEHLAQYWKDIAIAQRGIIKFWDEFGYLSANWNQPPSSELRYKRRRAMEIPTTIQCDLCLKWRTLPFQLSSVEKDYPDTWVCSMNPDPEQDRCEASEQKQKVPLGTFRKDMKTQEEKQKQLTEKIRQQQEKLEALQKTTPIRSQADLKKLPLEVTTRPSTEEPVRRPQRPRSPPLPAVIRNAPSRPPSLPTPRPASQPRKAPVISSTPKLPALAAREEASTSRLLQPPEAPRKPANTLVKTASRPAPLVQQLSPSLLPNSKSPREVPSPKVIKTPVVKKTESPIKLSPATPSRKRSVAVSDEEEVEEEAERRKERCKRGRFVVKEEKKDSNELSDSAGEEDSADLKRAQKDKGLHVEVRVNREWYTGRVTAVEVGKHVVRWKVKFDYVPTDTTPRDRWVEKGSEDVRLMKPPSPEHQSLDTQQEGGEEEVGPVAQQAIAVAEPSTSECLRIEPDTTALSTNHETIDLLVQILRNCLRYFLPPSFPISKKQLSAMNSDELISFPLKEYFKQYEVGLQNLCNSYQSRADSRAKASEESLRTSERKLRETEEKLQKLRTNIVALLQKVQEDIDINTDDELDAYIEDLITKGD
